Laboratory results taken from PMC7724824.
No constants are given. Whether binding was seen depends on the method and setting. In cells and extracts the contact can be indirect. Some entries that bind do so weakly or less than the wild type.

Chains of the proteins cited; added tags and fusions are not shown.
UniProt P31749: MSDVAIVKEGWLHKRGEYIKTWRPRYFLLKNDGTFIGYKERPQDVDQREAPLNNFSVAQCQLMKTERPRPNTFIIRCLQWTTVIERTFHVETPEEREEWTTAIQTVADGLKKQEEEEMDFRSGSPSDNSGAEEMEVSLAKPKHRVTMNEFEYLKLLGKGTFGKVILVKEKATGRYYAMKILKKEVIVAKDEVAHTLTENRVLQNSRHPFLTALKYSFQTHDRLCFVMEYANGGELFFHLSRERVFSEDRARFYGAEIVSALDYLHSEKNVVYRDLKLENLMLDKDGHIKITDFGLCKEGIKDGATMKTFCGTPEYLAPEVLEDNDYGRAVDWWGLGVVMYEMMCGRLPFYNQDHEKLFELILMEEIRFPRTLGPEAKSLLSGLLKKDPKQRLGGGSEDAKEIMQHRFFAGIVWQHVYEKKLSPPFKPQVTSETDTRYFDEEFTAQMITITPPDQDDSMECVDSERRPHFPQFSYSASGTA

Molecular target: Flag-AKT (wild type) (UniProt P31749)
Assay: co-IP; HEK293 cells (results and legend: HEK293T / 293 T) transfected with Flag-AKT (wild type) alone or plus HA-HDAC3 for 48 h; lysates immunoprecipitated with Flag, immunoblotted for acetylated-lysine, HA, p-AKT and Flag

Substance: HA-HDAC3 (histone deacetylase 3) (from UniProt O15379-1 1-428) (enzyme)
- binding: binds
